The results in this text go back to paper PMC6423756.

By UniProt entry, the sequences of proteins in these tests, tags left out.
UniProt Q9BWC9: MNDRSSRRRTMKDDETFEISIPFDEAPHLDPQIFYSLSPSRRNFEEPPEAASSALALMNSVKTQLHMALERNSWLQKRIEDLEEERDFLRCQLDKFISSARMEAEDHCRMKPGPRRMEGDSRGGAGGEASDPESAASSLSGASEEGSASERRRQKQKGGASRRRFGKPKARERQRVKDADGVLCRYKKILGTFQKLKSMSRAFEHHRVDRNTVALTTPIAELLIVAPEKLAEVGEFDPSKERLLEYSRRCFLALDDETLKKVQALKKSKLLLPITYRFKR
UniProt P67870: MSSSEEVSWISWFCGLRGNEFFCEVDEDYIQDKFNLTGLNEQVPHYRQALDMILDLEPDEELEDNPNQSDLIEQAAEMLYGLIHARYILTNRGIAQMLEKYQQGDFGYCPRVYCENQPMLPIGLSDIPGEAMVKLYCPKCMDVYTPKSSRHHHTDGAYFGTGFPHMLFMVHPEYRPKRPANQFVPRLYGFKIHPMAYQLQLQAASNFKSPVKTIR

For test [1], the target named is Myc-CCDC106 (wild-type CCDC106, coiled-coil domain-containing protein 106) (UniProt Q9BWC9). Briefly: co-IP; HEK293 cells cotransfected with HA-CK2β and Myc-CCDC106, 24 h; lysates precipitated with rabbit anti-Myc antibody or preimmune rabbit IgG; blot with anti-Myc and anti-HA.
Test [2] addresses endogenous CK2β protein (human (endogenous in HeLa)) (UniProt P67870). Briefly: co-IP; endogenous proteins; HeLa lysates precipitated with murine anti-CK2β or preimmune murine IgG; blot with rabbit anti-CCDC106 and anti-CK2β.

Results are given in words; binding and its absence hold for the method and conditions named. Binding seen in cells or lysates may run through a third protein. Some entries that bind do so weakly or less than the wild type.

Consider “HA-CK2β (regulatory β subunit of protein kinase CK2) (from UniProt P67870 1-215)”, for which, in test [1], the binding entry is “binds”.

On to “endogenous CCDC106 protein (from UniProt Q9BWC9 1-280)”, for which the binding entry in test [2] is listed as “binds”.
